# The whole screen tested about 320,000 compounds, of which about 2,100 (0.66%) were called active. The shares of active, inactive and inconclusive entries below differ from those in the screen. The call rests on the fitted dose curve; in most records, active means well fitted inhibition curve with a large enough effect in the signal ratio, with a control signal flat (not every such curve was filed as active); inconclusive means small, poorly fitted or top-dose-only effect, or effect the other way, or a change in a side signal; inactive means flat fitted curve, though single readings scatter; the % refers to the signal ratio. Potencies of inconclusive entries are doubtful fits and often do not repeat.
# Assay: qHTS Assay for Lipid Storage Modulators in Drosophila S3 Cells
# Conditions: BODIPY lipid droplet fluorescence, 18-24 h, cells fed with added oleic acid; lipid storage change, negative = inhibition: at 46.1 µM (top of the series) unless noted
# Outline: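 Drosophila S3 cells loaded with oleic acid (400 uM, as added) and compounds at several concentrations; lipid droplets imaged by 488-nm laser-scanning cytometry, 500–530 nm intensity and object ratio to cell channel. Percent activity normalized to 20 uM Triacsin C.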
# On the % scale 0 is the no-effect control and ±100 the full control effect; potency means the concentration at half of the fitted maximal effect.
SMILES,"lipid storage change, negative = inhibition",Potency
CN1/C(=C\C(=O)c2cccnc2)Sc2ccccc21,inconclusive: -1.12%,–
CCCN(C(=O)COc1ccc(Cl)cc1Cl)c1c(N)n(Cc2ccccc2)c(=O)[nH]c1=O,inconclusive: -25.9%,–
Nc1c(C(=O)c2ccccc2)sc2nsc(SCCN3CCOCC3)c12,–,"inconclusive: 29.1 µM [falling, single point]"
OCCC1CN(CC(c2ccccc2)c2ccccc2)CCN1C1CCCC1 (centres undefined),inconclusive: 30.4%,–
Cc1ccc(S(=O)(=O)Nc2c(C)n(C)n(-c3ccccc3)c2=O)cc1C(=O)NCc1ccccn1,inconclusive: 17.4%,–
CCN1C(=O)/C(=C\c2nc3ccccc3c(=O)n2-c2ccccc2)c2ccccc21,–,"inconclusive: 32.6 µM [falling, single point]"
O=C(CC1CCCCC1)NCc1ccc(F)cc1,inconclusive: 20.2% [at 9.22 µM],–
CC(SC1CCCC1)C(=O)Nc1ccnn1C(C)C (centres undefined),inconclusive: -9.19%,–
CC(NS(=O)(=O)c1cccc(C(=O)O)c1)C12CC3CC(CC(C3)C1)C2 (centres undefined),inconclusive: -62.2%,–
Cc1ccccc1NC(=O)COC(=O)c1ccc(S(C)(=O)=O)c([N+](=O)[O-])c1,–,active: 25.9 µM
COc1ccccc1C(CCN(Cc1cccs1)C(C)=O)c1ccco1 (centres undefined),–,"inconclusive: 2.59 µM [activator, single point]"
CCOc1ccc(-c2nnc(N(CC)C(=O)C3CCC3)s2)cc1,–,"inconclusive: 0.326 µM [rising, partial curve, poor fit]"
COc1ccccc1N(CC(=O)NC1CCCC1)C(=O)CNC(=O)c1cccs1,–,"inconclusive: 23.1 µM [falling, single point]"
O=C(c1ccc(Br)cc1)c1sc(N2CCOCC2)nc1-c1ccccc1,inconclusive: 60.9%,–
COc1ccc(-c2cn(CCO)c(-c3ccc(Cl)nc3)n2)cc1,–,"inconclusive: 6.51 µM [activator, partial curve]"
O=C1CCN(S(=O)(=O)c2ccc(Cl)cc2)CC1,inconclusive: -4%,–
O=C(/C=N\O)NCCCNCc1ccccc1,inconclusive: -6.3%,–
O=C(NCc1ccc(F)cc1)C1CCN(S(=O)(=O)c2ccc(Br)s2)CC1,–,"inconclusive: 3.26 µM [activator, partial curve]"
CCn1cc(-c2cc(C(=O)O)on2)c(C)n1,–,"inconclusive: 6.51 µM [cytotoxic, single point]"
Cn1c(SCC(N)=O)nnc1C1CCN(C(=O)NC2CCCCC2)CC1,–,"inconclusive: 1.16 µM [falling, full curve, poor fit]"
O=C(N/N=C(\c1ccccc1)c1cccnc1)C(O)(c1ccccc1)c1ccccc1,inconclusive: -34.2%,–
CC1CN(S(=O)(=O)c2cccc(C(=O)OCC(=O)NCc3ccccc3)c2)CC(C)O1 (centres undefined),inconclusive: 9.46%,–
Cc1cccc(NC(=O)c2ccc(S(=O)(=O)N3CCOCC3)cc2)n1,–,"inconclusive: 0.0651 µM [activator, full curve, poor fit]"
CN1CCC(NC(=O)c2cccc(Oc3ccccc3)c2)CC1,inconclusive: -31.7%,–
CCCn1nnnc1SCC(=O)NNC(=O)c1ccco1,–,"inconclusive: 0.146 µM [falling, full curve, poor fit]"

SMILES,"lipid storage change, negative = inhibition",Potency
COc1ccc(S(=O)(=O)N(C)CC(=O)N2CCCCCC2)cc1OC,–,"inconclusive: 0.13 µM [falling, full curve]"
CC1CCCC(NC(=O)c2ccncc2)C1C (centres undefined),inconclusive: -51.2%,–
Oc1ccc2ccccc2c1C=NCc1ccccc1,inconclusive: -22.4%,–
COc1ccc(NC(=O)c2cc3ccc4c5ccccc5[nH]c4c3cc2O)cc1,–,"inconclusive: 29.1 µM [falling, single point]"
O=C(NC(NC(=S)Nc1ccccc1C(=O)O)C(Cl)(Cl)Cl)c1ccccc1 (centres undefined),inconclusive: -1.63%,–
Cc1nc(NC(=O)c2ccc(OCC(C)C)cc2)sc1Cc1ccc2c(c1)OCO2,–,"inconclusive: 7.31 µM [activator, single point]"
CC(C)(C)NC(=O)COC(=O)C1c2ccccc2Oc2ccccc21,inactive: 22.1%,–
CN1CCN(S(=O)(=O)c2cccc(C(=O)Nc3sc4c(c3-c3nc5ccccc5[nH]3)CCCC4)c2)CC1,–,"inconclusive: 2.91 µM [activator, partial curve, poor fit]"
CCSc1nnc2c(Cl)cc(Cl)cn12,inconclusive: 39.1%,–
C=CCNC(=O)c1cccc(NS(=O)(=O)c2ccc(Cl)cc2)c1,inconclusive: -8%,–
O=C(O)/C=C/C(=O)Nc1ccc(Cc2ccc(NC(=O)/C=C/C(=O)O)cc2)cc1,inconclusive: -3.97%,–
O=C(NNC(=O)c1ccccc1O)c1ccc(Cl)c(S(=O)(=O)N2CCc3ccccc32)c1,inconclusive: -81.7%,–
CC1(C)Cc2c(cnn2-c2cccc(F)c2)C(NC(=O)c2ccc[n+]([O-])c2)C1 (centres undefined),inconclusive: 8.51%,–
O=C(CN1CC(=O)Oc2ccccc21)OCC(=O)c1ccccc1,inconclusive: -10.8%,–
COc1ccc(N2CCN(Cc3cc(=O)oc4cc(C)c(Cl)cc34)CC2)cc1,–,"inconclusive: 6.51 µM [activator, single point]"
COc1ccc(C2=NOC(C(=O)NCCCn3ccnc3)C2)cc1 (centres undefined),–,"inconclusive: 0.146 µM [rising, full curve, poor fit]"
N#CC1(NC(=O)COC(=O)c2ccccc2[N+](=O)[O-])CCCCC1,inconclusive: 12.6%,–
CN=C1CC(C)(C)CC(=O)/C1=C(/O)CCCN1C(=O)c2ccccc2C1=O,inconclusive: 9.22%,–
Cc1ccc(-c2c(C)c(-c3ccc(F)cc3)nc(N)c2C#N)o1,–,"inconclusive: 16.4 µM [cytotoxic, partial curve]"
CC(C)CNC(=O)c1cc(-c2ccc(Br)cc2)on1,–,"inconclusive: 9.2 µM [activator, single point]"
Cc1ccccc1OCC(=O)NS(=O)(=O)c1ccc(Cl)cc1,–,"inconclusive: 23.1 µM [falling, partial curve, poor fit]"
CC(Sc1nnc(Cc2ccccc2)o1)C(=O)Nc1ccccc1[N+](=O)[O-] (centres undefined),inconclusive: 1.4%,–
O=C(Nc1ccccc1Oc1cccnc1)C1CCCN(Cc2ccc(F)cc2)C1 (centres undefined),inconclusive: -152%,–
O=C1C(Cl)=C(N2CCOCC2)C(=O)N1c1ccccc1Cl,inconclusive: 53.3%,–
COc1ccc(C(=O)NCCCCCC(=O)O)cc1OC,–,active: 9.2 µM

# A few values from the entries so far.
# `COc1ccc(N2CCN(Cc3cc(=O)oc4cc(C)c(Cl)cc34)CC2)cc1` | Potency: inconclusive: 6.51 µM [activator, single point]
# `CC1(C)Cc2c(cnn2-c2cccc(F)c2)C(NC(=O)c2ccc[n+]([O-])c2)C1` (centres undefined) | lipid storage change, negative = inhibition: inconclusive: 8.51%
# `COc1ccc(C(=O)NCCCCCC(=O)O)cc1OC` | Potency: active: 9.2 µM

# Next results.

SMILES,"lipid storage change, negative = inhibition",Potency
COc1cc(/C=N/N2CCN(Cc3ccc(Cl)cc3)CC2)cc(Br)c1O,inconclusive: -9.62%,–
O=C(Nc1ccccc1)c1snc2c(=O)[nH]cnc12,inconclusive: 29.4%,–
CCn1c(=O)c(=O)n(CC)c2cc(S(=O)(=O)Nc3ccc(C)cc3)ccc21,inconclusive: 6.26%,–
O=C(Cn1nc(C(=O)O)c2ccccc2c1=O)Nc1cc(Cl)ccc1-n1cncn1,inconclusive: 91.7%,–
Nc1ccc(Nc2nc(-c3ccncc3)cs2)cc1,–,"inconclusive: 25.9 µM [activator, partial curve]"
COc1ccccc1NS(=O)(=O)c1ccc(C(=O)NCCCn2ccnc2)cc1,–,"inconclusive: 10.3 µM [activator, partial curve]"
O=C(COc1coc(CN2CCc3ccccc3C2)cc1=O)Nc1cccc(F)c1,–,"inconclusive: 0.0046 µM [falling, full curve, poor fit]"
O=C(c1ccccc1OC(F)F)N1CCN(S(=O)(=O)c2ccc3c(c2)OCCCO3)CC1,inconclusive: 35.3%,–
COC(=O)C(F)(Sc1c(C)n(C)n(-c2ccccc2)c1=O)C(F)(F)F (centres undefined),inconclusive: -16.1%,–
O=C1C=C(c2cccc(Cl)c2)C[C@@H](c2ccc(Cl)cc2)C1,–,"inconclusive: 25.9 µM [activator, partial curve]"
CCc1ccc(S(=O)(=O)Nc2nccs2)cc1,–,"inconclusive: 6.51 µM [activator, partial curve, poor fit]"
CN(C)CCCC(C)(O)C(C)(C)c1ccccc1 (centres undefined),inconclusive: -0.147%,–
CCCn1c(=O)c2ccccc2n2c(SCc3c(C(=O)OCC)oc4ccccc34)nnc12,inconclusive: 1.95%,–
Cc1nn(C)cc1CNC(=O)c1cccc(F)c1,inconclusive: 8.82%,–
COc1ccc(OC)c(NC(=O)Cn2cccc2)c1,inconclusive: 23.3%,–
COc1nc(Nc2cccc([N+](=O)[O-])c2)nc(OC)n1,–,"inconclusive: 0.058 µM [falling, full curve, poor fit]"
O=C(Nc1nccs1)c1cc(-c2ccco2)nc2ccccc12,inconclusive: 15.4%,–
O=C(O)COc1ccc(NC(=O)c2ccc(NC(=O)c3ccco3)cc2)cc1,inconclusive: -35.6%,–
c1ccc(-c2cn(C[C@H]3CC[C@@H]([C@@H]4CC[C@H](Cn5cc(-c6ccccc6)nn5)O4)O3)nn2)cc1,inactive: -0.0556%,–
COc1ccc2[nH]c3c(=O)n(Cc4ccc(C(=O)N5CCCCCC5)cc4)c(=S)[nH]c3c2c1,–,"inconclusive: 3.66 µM [activator, single point]"
CCCSc1ccc([C@H]2N[C@@](Cc3ccccc3)(C(=O)OC)[C@H]3C(=O)N(CC)C(=O)[C@@H]23)cc1,inconclusive: 4.42%,–
O=C(NNC(=O)C1CC1c1ccccc1)c1ccccc1F (centres undefined),inconclusive: 13.2%,–
CC(CNC(=O)Cn1ccc(NC(=O)OCc2ccccc2)nc1=O)c1ccccc1 (centres undefined),inconclusive: -59.5%,–
COc1ccc(CCNC(=O)c2cc3c(=O)n(C)c4ccccc4c3n2C)c(OC)c1,inconclusive: 13.9%,–

# From PubChem BioAssay AID2685 (National Center for Advancing Translational Sciences (NCATS), 2010)
